Assay: Curability (sensitivity): change in film thickness after exposure and water immersion
Conditions: exposure light having a wavelength peak of 400 nm or longer

| Structure (SMILES) | Curing / sensitivity in words |
| --- | --- |
| O=C(O)c1cccc2c(=O)c3ccccc3sc12 [Compound 1] | excellent sensitivity |
| O=C(O)c1cccc2c(=O)c3ccccc3sc12 [Compound 61] | excellent sensitivity |
